Results published in PubChem BioAssay AID1671190 (National Center for Advancing Translational Sciences (NCATS), 2021).
Several values for one entry are separate records, joined by “and”; a condition that tells them apart may be missing. Equal entries are not always repeated. Out of some 580,000 compounds screened, about 6,100 (1.1%) were called active. Inconclusive results, whose numbers are uncertain, are shown with a selection of clear calls. The call rests on the fitted dose curve; in most records, active means well fitted inhibition curve with a large enough effect; inconclusive means small, poorly fitted or top-dose-only effect, or another doubt; inactive means no such curve, though single readings can be large or run the other way. Potencies beside an inconclusive call are fits to weak or partial responses and may not hold up.

Chains of the proteins cited; added tags and fusions are not shown. Lines headed by an entry give the natural chain unless they say otherwise; changes in a name come on top.
UniProt P18054: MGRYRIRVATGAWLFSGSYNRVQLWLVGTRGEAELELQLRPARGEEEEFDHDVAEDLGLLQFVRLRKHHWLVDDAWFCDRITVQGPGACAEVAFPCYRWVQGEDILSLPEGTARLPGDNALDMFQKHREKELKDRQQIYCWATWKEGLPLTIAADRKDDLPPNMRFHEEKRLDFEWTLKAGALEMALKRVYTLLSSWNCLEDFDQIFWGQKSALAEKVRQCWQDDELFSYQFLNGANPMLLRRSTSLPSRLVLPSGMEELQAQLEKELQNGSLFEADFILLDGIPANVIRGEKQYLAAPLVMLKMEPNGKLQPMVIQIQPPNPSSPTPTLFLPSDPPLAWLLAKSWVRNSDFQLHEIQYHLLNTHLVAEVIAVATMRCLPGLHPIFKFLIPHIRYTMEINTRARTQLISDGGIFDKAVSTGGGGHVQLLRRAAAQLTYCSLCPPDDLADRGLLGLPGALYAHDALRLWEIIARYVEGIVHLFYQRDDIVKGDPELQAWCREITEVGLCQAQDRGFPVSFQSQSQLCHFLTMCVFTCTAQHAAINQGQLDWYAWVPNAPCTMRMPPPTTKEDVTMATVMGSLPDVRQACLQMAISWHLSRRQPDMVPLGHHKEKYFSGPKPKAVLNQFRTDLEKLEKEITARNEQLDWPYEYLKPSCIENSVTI

These molecules were tested against Polyunsaturated fatty acid lipoxygenase ALOX12 (Homo sapiens) (UniProt P18054) (assay: Primary qHTS assay for inhibitors of human arachidonate 12S-lipoxygenase (ALOX12): Round 2). Details: purified 12hLO, xylenol orange hydroperoxide absorbance; activity change, negative = inhibition: at 108 µM (top of the series) unless noted.
How it was run: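 Hydroperoxide product was detected by ferrous iron/xylenol orange as the 573 to 405 nm absorbance ratio. Arachidonic acid at 40 uM (final) was turned over for 30 min at room temperature by 150 nM human 12hLO, pH 7.0 Hepes buffer, after 15 min compound preincubation.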
On the % scale 0 is the no-effect control and ±100 the full control effect; potency means the concentration at half of the fitted maximal effect.

Row | SMILES | Potency | activity change, negative = inhibition
1 | O=C(O)CC(NCc1ccco1)C(=O)OCC1CCCO1 (stereo not drawn) | inconclusive: 4.47 µM [inhibitor, single point] | –
2 | Cc1nc(Cl)cc(CS(=O)(=O)c2ccc(Cl)cc2)n1 | inactive | –
3 | CCOC(=O)C1=C(Nc2ccccc2)O/C(=C/c2ccc(F)cc2)C1=O | inactive | –
4 | COc1cccc(CNC(=O)CCNS(=O)(=O)c2ccc(Br)s2)c1 | inactive | –
5 | CNCc1cccc(C(F)(F)F)c1 | – | inactive: -0.38% [at 12.5 µM]
6 | Cc1nn(Cc2ccccc2)c(C)c1NC(=O)CSc1nnc(-c2cc(Cl)ccc2O)n1C | inconclusive: 44.7 µM [inhibitor, partial curve, poor fit] | –
7 | CCCCn1c(-c2ccc(OC)cc2)nc2c(=O)n(C)c(=O)[nH]c21 | inactive and inconclusive: 112 µM [inhibitor, single point] | –
8 | Cc1ccc2c(c1)c1c3n2CCN(CCC#N)C3CCC1 (stereo not drawn) | inconclusive: 50.1 µM [inhibitor, partial curve, poor fit] | –
9 | c1ccc(COc2cccc(CN3CCCCC3)c2)cc1 | inconclusive: 0.562 µM [inhibitor, full curve] | –
10 | CC(=O)c1ccc(NC(=O)/C(C#N)=C/c2ccncc2)cc1 | inconclusive: 35.5 µM [inhibitor, partial curve] | –
11 | S=c1[nH]nc(COc2ccccc2)n1/N=C/c1ccccc1Cl | inconclusive: 25.1 µM [inhibitor, partial curve, poor fit] | –
12 | O=C(O)c1cccc(-c2ccc(CNC3CCCC3)o2)c1 | – | inconclusive: -37% [inhibitor]
13 | CC(SCc1ccccc1)C(=O)Nc1ccc2c(c1)OCO2 (stereo not drawn) | inconclusive: 56.2 µM [inhibitor, partial curve, poor fit] | –
14 | O=C1CSc2ccc(C(=O)OCc3ccccc3[N+](=O)[O-])cc2N1 | inconclusive: 56.2 µM [inhibitor, partial curve, poor fit] | –
15 | Cc1nnc(NNS(=O)(=O)c2ccc(Cl)cc2)[nH]c1=O | inconclusive: 1.41 µM [inhibitor, full curve, poor fit] | –
16 | CCCCCCN1C[C@H](O)[C@@H](n2cc(COC(=O)c3ccccc3)nn2)C[C@@H]1c1ccccc1 | inconclusive: 89.1 µM [inhibitor, single point] | –
17 | CN(C)/C=C/C(=O)c1ccc2noc(-c3ccccc3)c2c1 | inconclusive: 3.55 µM [inhibitor, full curve, poor fit] | –
18 | Nc1cccc2c1C(=O)N(Cc1nnc(-c3ccccc3Br)o1)C2=O | inconclusive: 112 µM [inhibitor, single point] | –
19 | O=[N+]([O-])c1ccccc1/C=N/n1c(C2CCCCC2)n[nH]c1=S | inconclusive: 50.1 µM [inhibitor, partial curve, poor fit] | –
20 | N#Cc1nc(-c2cccc3ccccc23)oc1NCC(c1cccs1)N1CCOCC1 (stereo not drawn) | inconclusive: 141 µM [inhibitor, partial curve, poor fit] | –
21 | O=S(=O)(NCCCc1ccccc1)c1cccc2nsnc12 | inactive | –
22 | COCCN1C(=O)CC[C@]2(C(=O)NCc3ccc(OC)c(OC)c3)CCCC[C@@H]12 | inconclusive: 31.6 µM [inhibitor, partial curve, poor fit] | –
23 | COC(=O)c1cccc(C23CC4(C2)[C@H](CN(Cc2ccc(-c5ccccc5)cc2)[C@@H]4c2ccccc2)C3c2ccc(C(F)(F)F)cc2)c1 (stereo partly drawn) | inconclusive: 39.8 µM [inhibitor, partial curve] | –

Row | SMILES | Potency | activity change, negative = inhibition
24 | O=S(=O)(Nc1cc(Sc2cccc3cccnc23)c(O)c2ccccc12)c1ccccc1 | inconclusive: 1.58 µM [inhibitor, full curve, poor fit] | –
25 | COCC(C)NC(=O)CSc1nnc(-c2cccc(S(=O)(=O)N3CCCCC3)c2)o1 (stereo not drawn) | inactive | –
26 | COc1ccc2[nH]c(=O)c(CN(Cc3nnnn3CCc3ccccc3)CC3CCCO3)cc2c1 (stereo not drawn) | inconclusive: 39.8 µM [inhibitor, partial curve, poor fit] | –
27 | COc1ccc(S(=O)(=O)N2CCC[C@H]2C(=O)N2CCC[C@H]2C(=O)N[C@@H](C)c2ccccc2)cc1C | inconclusive: 79.4 µM [inhibitor, single point] | –
28 | Cc1c(N2C(=O)CS/C2=N\N=C\c2ccc(Br)cc2)c(=O)n(-c2ccccc2)n1C | inactive | –
29 | CCCCn1nc(C(=O)NCCNS(=O)(=O)c2cc(C)ccc2C)c2ccccc2c1=O | inactive | –
30 | COc1ccc(OC)c(C2NC(=O)c3sc(=S)n(-c4ccccc4)c3N2)c1 (stereo not drawn) | inconclusive: 70.8 µM [inhibitor, partial curve, poor fit] | –
31 | CCC(C)c1ccc(OCCn2cc(/C=N/NC(=O)CSc3nnc(C)s3)c3ccccc32)cc1 (stereo not drawn) | inactive | –
32 | C[Se]CCC(N)C(=O)O (stereo not drawn) | – | inconclusive: -36.2% [inhibitor]
33 | Fc1ccccc1NC(=S)NCCc1ccc(Cl)cc1 | active: 39.8 µM | –
34 | CCn1cc(C(=O)O)c(=O)c2cc(F)c(N3CCN(C(=S)NC(=O)c4ccccc4Br)CC3)cc21 | inconclusive: 31.6 µM [inhibitor, partial curve, poor fit] | –
35 | CCOc1ccc(C(=O)CCN2CCCCC2)cc1 | inactive | –
36 | COc1ccc(NS(=O)(=O)c2cc(NC(=O)c3cc(F)c(F)cc3Cl)ccc2N2CCOCC2)cc1 | inactive | –
37 | Cc1cc[n+](CC(=O)c2cccs2)cc1 | inactive | –
38 | COCCCNC(=O)c1oc2c(c1C)-c1nn(Cc3ccc(Cl)cc3)cc1CC2 | inconclusive: 1.78 µM [inhibitor, full curve, poor fit] | –
39 | COCCn1c(C)cnc1CCNS(=O)(=O)c1cccnc1 | inconclusive: 3.16 µM [inhibitor, full curve, poor fit] | –
40 | Cc1ccc(/C(O)=C2/C(=O)C(=O)N(CCCn3ccnc3)C2c2cccnc2)cc1 (stereo not drawn) | inactive | –
41 | COc1ccc(CCC(=O)N2[C@@H]3CC[C@H]2CC(NC(=O)c2ccncc2)C3)cc1 (stereo partly drawn) | inactive | –
42 | CN(CCC1CCCCO1)C(=O)c1cc(COc2ccc(F)cc2F)on1 (stereo not drawn) | inactive | –
43 | CN(C)c1nc(C=C(C#N)C#N)c(Cl)n1-c1ccc(F)cc1 | inconclusive: 44.7 µM [inhibitor, partial curve, poor fit] | –
44 | CCc1ccccc1NC(=S)NC1CC2CCC(C1)N2Cc1ccc(F)cc1 (stereo not drawn) | inconclusive: 39.8 µM [inhibitor, partial curve, poor fit] | –
45 | COC(=O)C1=C(C)N(c2ccc(F)c(Cl)c2)C(=O)C1 | inconclusive: 31.6 µM [inhibitor, partial curve, poor fit] | –
46 | N#C/C(=C/c1ccccc1OC(F)F)C(=O)c1ccccc1 | inconclusive: 25.1 µM [inhibitor, partial curve] | –

Three of these compounds, set out differently:

| Row | SMILES | Potency | activity change, negative = inhibition |
| --- | --- | --- | --- |
| 37 | Cc1cc[n+](CC(=O)c2cccs2)cc1 | inactive | – |
| 38 | COCCCNC(=O)c1oc2c(c1C)-c1nn(Cc3ccc(Cl)cc3)cc1CC2 | inconclusive: 1.78 µM [inhibitor, full curve, poor fit] | – |
| 39 | COCCn1c(C)cnc1CCNS(=O)(=O)c1cccnc1 | inconclusive: 3.16 µM [inhibitor, full curve, poor fit] | – |

(further entries)

Row | SMILES | Potency | activity change, negative = inhibition
47 | COc1ccc(S(=O)(=O)Nc2nc3ccccc3nc2Nc2ccc(OC)c(Cl)c2)cc1 | inconclusive: 15.8 µM [inhibitor, partial curve, poor fit] | –
48 | COc1ccc(C(=O)N(Cc2ccccc2)c2cccc(C)c2)cc1 | inactive | –
49 | Cc1nc2c(OCCOc3ccccc3)cccn2c1N(C)C(=O)CCC1CCCC1 | inactive | –
50 | CCc1nn2c(C)c(C(=O)Nc3ccc(F)cc3)nnc2c1-c1ccc(OC)cc1 | inactive | –
51 | CCCCn1c(N)c(N(Cc2ccco2)C(=O)Cn2c(CC)nc3ccccc32)c(=O)[nH]c1=O | inconclusive: 56.2 µM [inhibitor, partial curve, poor fit] | –
52 | COC(=O)c1ccccc1SC(CC(=O)c1ccccc1)c1ccc(F)cc1 (stereo not drawn) | inactive | –
53 | COc1cc(/C=N/Nc2ccccc2)ccc1OC(=O)c1cccs1 | inconclusive: 50.1 µM [inhibitor, partial curve, poor fit] | –
54 | COCC(C)n1c(C)cc(C(=O)COC(=O)c2cccn2C)c1C (stereo not drawn) | inactive | –
55 | Cc1cccc(-n2c(-c3ccccc3)c[nH]c2=S)c1C | inconclusive: 50.1 µM [inhibitor, partial curve, poor fit] | –
56 | N#CC1(C(=O)NCc2cccc(NC(=O)C3CCCC3)c2)CCCC1 | inactive | –
57 | O=Cc1cccn1-c1ccc(Cl)c(Cl)c1 | inactive | –
58 | CC1CCCN(C(=O)COC(=O)/C=C/c2ccc(C(F)(F)F)cc2)C1 (stereo not drawn) | inconclusive: 1.78 µM [inhibitor, full curve, poor fit] | –
59 | Cc1cccc(N=C2NC(=O)/C(=C/c3cccs3)S2)c1 | inactive | –
60 | Cc1ccc(Nc2nc(N)nc(CN3CCN(Cc4ccc5c(c4)OCO5)CC3)n2)cc1 | inactive | –
61 | Cn1ccc2c(/C=C/c3ccc(F)cc3)cc3c(c21)C1CCC3C1 (stereo not drawn) | inconclusive: 17.8 µM [inhibitor, full curve] | –
62 | COc1ccccc1CN1CCc2c([nH]c3ccccc23)C1 | inconclusive: 2.82 µM [inhibitor, full curve, poor fit] | –
63 | O=c1[nH]c2cc3c(cc2cc1CN(Cc1ccccc1)Cc1nnnn1Cc1ccco1)OCCO3 | inconclusive: 3.55 µM [inhibitor, full curve, poor fit] | –
64 | Fc1ccc(CNCc2cccc(Oc3ccccc3)c2)cc1 | inconclusive: 1.12 µM [inhibitor, full curve, poor fit] | –
65 | O=C(NC1CCCCC1)C(C1CC1)n1c(=O)c(-c2ccco2)nc2ccccc21 (stereo not drawn) | inconclusive: 44.7 µM [inhibitor, partial curve, poor fit] | –
66 | COc1ccc(N2CCN(C(=O)C3Cc4ccccc4CN3C(=O)c3ccccc3)CC2)cc1 (stereo not drawn) | inactive | –
67 | CC(c1cccc(Cl)c1)N(C)CCS(=O)(=O)CCC(N)=O (stereo not drawn) | inconclusive: 56.2 µM [inhibitor, single point] | –
68 | CCOC(=O)CSc1cc(=O)n(C)c2cc(Cl)ccc12 | inconclusive: 50.1 µM [inhibitor, partial curve, poor fit] | –
